These are yes or no findings as the source states them, for the method shown. For some assays here: Binding seen in cells or lysates may run through a third protein. Some results given as binding are weak or reduced against the parent protein; the word gives no strength. For some assays here: Sequences can lack the tags named with a protein. Values belong to the binder of their own block, whether it stands above or below them.
Experiments:
[1] = target: GST-fused FAK (in HUVECs), Q05397; assay: pull-down; GST-FAK pulled down from HUVECs expressing it, endogenous FAK detected; cells treated with DMSO, itraconazole (3 μM) or TNP (5 μM) for 24 h; conditions: remark: other sources report otherwise
[2] = target: flag-tagged FAK (from HEK293 cells, on beads), Q05397; assay: pull-down; in vitro protein binding assay: flag-FAK immobilised on protein A/G beads by anti-flag antibody, purified GST-FAK added in the presence of InsP6, 5-InsP7, 5-PCP or CF2, overnight at 4 °C; both purified; conditions: remark: other sources report otherwise

binding [1]: binds
B1: endogenous FAK (HUVECs), Q05397 1-1052 (enzyme)
chain: MAAAYLDPNLNHTPNSSTKTHLGTGMERSPGAMERVLKVFHYFESNSEPTTWASIIRHGDATDVRGIIQKIVDSHKVKHVACYGFRLSHLRSEEVHWLHVDMGVSSVREKYELAHPPEEWKYELRIRYLPKGFLNQFTEDKPTLNFFYQQVKSDYMLEIADQVDQEIALKLGCLEIRRSYWEMRGNALEKKSNYEVLEKDVGLKRFFPKSLLDSVKAKTLRKLIQQTFRQFANLNREESILKFFEILSPVYRFDKECFKCALGSSWIISVELAIGPEEGISYLTDKGCNPTHLADFTQVQTIQYSNSEDKDRKGMLQLKIAGAPEPLTVTAPSLTIAENMADLIDGYCRLVNGTSQSFIIRPQKEGERALPSIPKLANSEKQGMRTHAVSVSETDDYAEIIDEEDTYTMPSTRDYEIQRERIELGRCIGEGQFGDVHQGIYMSPENPALAVAIKTCKNCTSDSVREKFLQEALTMRQFDHPHIVKLIGVITENPVWIIMELCTLGELRSFLQVRKYSLDLASLILYAYQLSTALAYLESKRFVHRDIAARNVLVSSNDCVKLGDFGLSRYMEDSTYYKASKGKLPIKWMAPESINFRRFTSASDVWMFGVCMWEILMHGVKPFQGVKNNDVIGRIENGERLPMPPNCPPTLYSLMTKCWAYDPSRRPRFTELKAQLSTILEEEKAQQEERMRMESRRQATVSWDSGGSDEAPPKPSRPGYPSPRSSEGFYPSPQHMVQTNHYQVSGYPGSHGITAMAGSIYPGQASLLDQTDSWNHRPQEIAMWQPNVEDSTVLDLRGIGQVLPTHLMEERLIRQQQEMEEDQRWLEKEERFLKPDVRLSRGSIDREDGSLQGPIGNQHIYQPVGKPDPAAPPKKPPRPGAPGHLGSLASLSSPADSYNEGVKLQPQEISPPPTANLDRSNDKVYENVTGLVKAVIEMSSKIQPAPPEEYVPMVKEVGLALRTLLATVDETIPLLPASTHREIEMAQKLLNSDLGELINKMKLAQQYVMTSLQQEYKKQMLTAAHALAVDAKNLLDVIDQARLKMLGQTRPH

binding [2]: binds
B2: GST-fused FAK (purified from HEK293 cells), Q05397 1-1052 (enzyme)
chain: B1 chain

From article PMC7614367, “Itraconazole inhibits endothelial cell migration by disrupting inositol pyrophosphate-dependent focal adhesion dynamics and cytoskeletal remodeling” (Biomedicine & Pharmacotherapy, 2023)
